Source: paper doi:10.1101/2025.11.20.689565
No constants are given. Whether binding was seen depends on the method and setting. Sequences can lack the tags named with a protein. Values belong to the binder of their own block, whether it stands above or below them.

Tests used:
[1] = biological target: T1, MBP-6His-HA (M6HH)-tagged SPD-5 aa 1-113, not phosphorylated (C. elegans) (UniProt P91349); test: SEC-MALS; Superose 6 increase 10/300 or Superdex 200 increase 10/300 in 20 mM Tris-HCl pH 7.5, 50 mM NaCl, 5 mM EGTA, 2 mM MgCl2, 1 mM DTT; 120 μL of ~2.0 mg/ml protein loaded; with or without PLK1 phosphorylation; both purified
T1 sequence: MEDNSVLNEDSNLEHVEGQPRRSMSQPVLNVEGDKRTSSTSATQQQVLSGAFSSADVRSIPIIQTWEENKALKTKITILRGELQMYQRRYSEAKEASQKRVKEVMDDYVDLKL

[2] = biological target: T1, MBP-6His-HA (M6HH)-tagged SPD-5 aa 1-113, not phosphorylated (C. elegans); test: pull-down; MBP pull-down: purified SPD-5 fragments mixed at 2.0 μM with or without 500 nM PLK1(T194D) in kinase buffer 1 h at 23°C; then 75 nM each with 2 μg anti-MBP antibody in lysis buffer 2 h at 4°C and protein A beads 1 h at 4°C; five washes; immunoblot or Coomassie; both purified
[3] = biological target: SPD-5 aa 1-200 (taken as MBP-6His-HA-tagged), not phosphorylated (C. elegans) (UniProt P91349); test: SEC-MALS; Superose 6 increase 10/300 or Superdex 200 increase 10/300 in 20 mM Tris-HCl pH 7.5, 50 mM NaCl, 5 mM EGTA, 2 mM MgCl2, 1 mM DTT; 120 μL of ~2.0 mg/ml protein loaded; with or without PLK1 phosphorylation; both purified
[4] = biological target: T2, MBP-6His-HA (M6HH)-tagged SPD-5 aa 1-60, not phosphorylated (C. elegans) (UniProt P91349); test: pull-down; MBP pull-down: purified SPD-5 fragments mixed at 2.0 μM with or without 500 nM PLK1(T194D) in kinase buffer 1 h at 23°C; then 75 nM each with 2 μg anti-MBP antibody in lysis buffer 2 h at 4°C and protein A beads 1 h at 4°C; five washes; immunoblot or Coomassie; both purified
T2 sequence: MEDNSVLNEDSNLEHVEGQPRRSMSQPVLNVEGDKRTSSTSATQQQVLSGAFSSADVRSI

B1: MBP-6His-HA (M6HH)-tagged SPD-5 aa 1-113, not phosphorylated (domain or fragment, UniProt P91349 1-113)
chain: T1 sequence
binding [1]: no binding (tested: ~2.0 mg/ml loaded)

B2: Halo-tagged SPD-5 aa 200-345, not phosphorylated (domain or fragment, UniProt P91349 200-345)
chain: TSGYEERKINDLEAKLLSEIDKVAELEDHIQQLRQELDDQSARLADSENVRAQLEAATGQGILGAAGNAMVPNSTFMIGNGRESQTRDQLNYIDDLETKLADAKKENDKARQALVEYMNKCSKLEHEIRTMVKNSTFDSSSMLLGG
binding [2]: no binding (tested: 75 nM)

The remaining lines, values ahead:

binding [3]: no binding (tested: ~2.0 mg/ml loaded)
B3: SPD-5 aa 1-200 (taken as MBP-6His-HA-tagged), not phosphorylated (domain or fragment, UniProt P91349 1-200)
chain: MEDNSVLNEDSNLEHVEGQPRRSMSQPVLNVEGDKRTSSTSATQQQVLSGAFSSADVRSIPIIQTWEENKALKTKITILRGELQMYQRRYSEAKEASQKRVKEVMDDYVDLKLGQENVQEKMEQYKLMEEDLLAMQSRIETSEDNFARQMKEFEAQKHAMEERIKELELSATDANNTTVGSFRGTLDDILKKNDPDFTLT

binding [4]: no binding (tested: 75 nM)
B4: untagged SPD-5 aa 101-473, not phosphorylated (domain or fragment, UniProt P91349 101-473)
chain: VKEVMDDYVDLKLGQENVQEKMEQYKLMEEDLLAMQSRIETSEDNFARQMKEFEAQKHAMEERIKELELSATDANNTTVGSFRGTLDDILKKNDPDFTLTSGYEERKINDLEAKLLSEIDKVAELEDHIQQLRQELDDQSARLADSENVRAQLEAATGQGILGAAGNAMVPNSTFMIGNGRESQTRDQLNYIDDLETKLADAKKENDKARQALVEYMNKCSKLEHEIRTMVKNSTFDSSSMLLGGQTSDELKIQIGKVNGELNVLRAENRELRIRCDQLTGGDGNLSISLGQSRLMAGIATNDVDSIGQGNETGGTSMRILPRESQLDDLEESKLPLMDTSSAVRNQQQFASMWEDFESVKDSLQNNHNDTLE
